Measured values taken from patent US20230242871A1, “GENERATION OF PRIMORDIAL GERM CELLS AND METHODS OF USING THE SAME” (The Board of Trustees of the Leland Stanfor Junior …, priority 2020, published 2023).

Assays:
Assay in all cases: High-throughput cell-surface marker screening (LEGENDScreen), %PE+
Assay type in all cases: cell-based, human
Details in all cases: percentage of cells bound to the PE-conjugated antibody (LEGENDScreen)
[1] = test system: undifferentiated hPSC (D0)
D3.5 SOX17-GFP- non-PGCs = test system: D3.5 SOX17-GFP- non-PGCs
D3.5 SOX17-GFP+ PGCs = test system: D3.5 SOX17-GFP+ PGCs

B1: CD179b (protein, UniProt P15814 38-213, looked up)
Immunoglobulin lambda-like …: LLRPTAASQSRALGPGAPGGSSRSSLRSRWGRFLLQRGSWTGPRCWPRGFQSKHNSVTHVFGSGTQLTVLSQPKATPSVTLFPPSSEELQANKATLVCLMNDFYPGILTVTWKADGTPITQGVEMTTPSKQSNNKYAASSYLSLTPEQWRSRRSYSCQVMHEGSTVEKTVAPAECS
How did the “% PE+ in H1 UD” value [1] turn out when B1 was run?
The value was 0.1%.

What about the “% PE+ in non-PGCs” value (D3.5 SOX17-GFP- non-PGCs) of the same molecule?
Its value is 0.0001117%.

What about the “% PE+ in PGCs” value (D3.5 SOX17-GFP+ PGCs) of the same molecule?
Its value is 0%.

B2: CD278 (protein, UniProt Q9Y6W8 21-199, looked up)
Inducible T-cell costimulator: EINGSANYEMFIFHNGGVQILCKYPDIVQQFKMQLLKGGQILCDLTKTKGSGNTVSIKSLKFCHSQLSNNSVSFFLYNLDHSHANYYFCNLSIFDPPPFKVTLTGGYLHIYESQLCCQLKFWLPIGCAAFVVVCILGCILICWLTKKKYSSSVHDPNGEYMFMRAVNTAKKSRLTDVTL
What does the source list for B2?
% PE+ in H1 UD [1]: 0.038%; % PE+ in non-PGCs (D3.5 SOX17-GFP- non-PGCs): 5.9713E-05%; % PE+ in PGCs (D3.5 SOX17-GFP+ PGCs): 0%

B3: CD150 (protein, UniProt Q13291 21-335, looked up)
Signaling lymphocytic …: ASYGTGGRMMNCPKILRQLGSKVLLPLTYERINKSMNKSIHIVVTMAKSLENSVENKIVSLDPSEAGPPRYLGDRYKFYLENLTLGIRESRKEDEGWYLMTLEKNVSVQRFCLQLRLYEQVSTPEIKVLNKTQENGTCTLILGCTVEKGDHVAYSWSEKAGTHPLNPANSSHLLSLTLGPQHADNIYICTVSNPISNNSQTFSPWPGCRTDPSETKPWAVYAGLLGGVIMILIMVVILQLRRRGKTNHYQTTVEKKSLTIYAQVQKPGPLQKKLDSFPAQDPCTTIYVAATEPVPESVQETNSITVYASVTLPES
Which “% PE+ in H1 UD” value [1] does the source give for B3 here?
The value was 0.022%.

And the “% PE+ in non-PGCs” value (D3.5 SOX17-GFP- non-PGCs)?
Its value is 0%.

And the “% PE+ in PGCs” value (D3.5 SOX17-GFP+ PGCs)?
The value was 0%.

B4: CD194 (protein, UniProt P51679 1-360, looked up)
C-C chemokine receptor type 4: MNPTDIADTTLDESIYSNYYLYESIPKPCTKEGIKAFGELFLPPLYSLVFVFGLLGNSVVVLVLFKYKRLRSMTDVYLLNLAISDLLFVFSLPFWGYYAADQWVFGLGLCKMISWMYLVGFYSGIFFVMLMSIDRYLAIVHAVFSLRARTLTYGVITSLATWSVAVFASLPGFLFSTCYTERNHTYCKTKYSLNSTTWKVLSSLEINILGLVIPLGIMLFCYSMIIRTLQHCKNEKKNKAVKMIFAVVVLFLGFWTPYNIVLFLETLVELEVLQDCTFERYLDYAIQATETLAFVHCCLNPIIYFFLGEKFRKYILQLFKTCRGLFVLCQYCGLLQIYSADTPSSSYTQSTMDHDLHDAL
Which results are given for B4?
% PE+ in H1 UD [1]: 0.46%; % PE+ in non-PGCs (D3.5 SOX17-GFP- non-PGCs): 0.004667%; % PE+ in PGCs (D3.5 SOX17-GFP+ PGCs): 0.006234%

B5: CD1c (protein, UniProt P29017 18-333, looked up)
T-cell surface glycoprotein …: NADASQEHVSFHVIQIFSFVNQSWARGQGSGWLDELQTHGWDSESGTIIFLHNWSKGNFSNEELSDLELLFRFYLFGLTREIQDHASQDYSKYPFEVQVKAGCELHSGKSPEGFFQVAFNGLDLLSFQNTTWVPSPGCGSLAQSVCHLLNHQYEGVTETVYNLIRSTCPRFLLGLLDAGKMYVHRQVRPEAWLSSRPSLGSGQLLLVCHASGFYPKPVWVTWMRNEQEQLGTKHGDILPNADGTWYLQVILEVASEEPAGLSCRVRHSSLGGQDIILYWGHHFSMNWIALVVIVPLVILIVLVLWFKKHCSYQDIL
How did the “% PE+ in H1 UD” value [1] turn out when B5 was run?
The value was 1.19%.

What about the “% PE+ in non-PGCs” value (D3.5 SOX17-GFP- non-PGCs) of the same molecule?
The value was 5.8313E-05%.

What about the “% PE+ in PGCs” value (D3.5 SOX17-GFP+ PGCs) of the same molecule?
The value was 0%.

B6: CD164 (protein, UniProt Q04900 24-197, looked up)
Sialomucin core protein 24: DKNTTQHPNVTTLAPISNVTSAPVTSLPLVTTPAPETCEGRNSCVSCFNVSVVNTTCFWIECKDESYCSHNSTVSDCQVGNTTDFCSVSTATPVPTANSTAKPTVQPSPSTTSKTVTTSGTTNNTVTPTSQPVRKSTFDAASFIGGIVLVLGVQAVIFFLYKFCKSKERNYHTL
With B6 as the molecule, how does the “% PE+ in H1 UD” value [1] read?
Its value is 99.3%.

What about the “% PE+ in non-PGCs” value (D3.5 SOX17-GFP- non-PGCs) of the same molecule?
The value was 0.5852%.

And the “% PE+ in PGCs” value (D3.5 SOX17-GFP+ PGCs)?
The value was 0.3723%.

B7: CD1b (protein, UniProt P29016 18-333, looked up)
T-cell surface glycoprotein …: SEHAFQGPTSFHVIQTSSFTNSTWAQTQGSGWLDDLQIHGWDSDSGTAIFLKPWSKGNFSDKEVAELEEIFRVYIFGFAREVQDFAGDFQMKYPFEIQGIAGCELHSGGAIVSFLRGALGGLDFLSVKNASCVPSPEGGSRAQKFCALIIQYQGIMETVRILLYETCPRYLLGVLNAGKADLQRQVKPEAWLSSGPSPGPGRLQLVCHVSGFYPKPVWVMWMRGEQEQQGTQLGDILPNANWTWYLRATLDVADGEAAGLSCRVKHSSLEGQDIILYWRNPTSIGSIVLAIIVPSLLLLLCLALWYMRRRSYQNIP
Which “% PE+ in H1 UD” value [1] does the source give for B7 here?
Its value is 0.31%.

And the “% PE+ in non-PGCs” value (D3.5 SOX17-GFP- non-PGCs)?
The value was 0.0005789%.

And the “% PE+ in PGCs” value (D3.5 SOX17-GFP+ PGCs)?
Its value is 0%.

B8: CD180 (protein, UniProt Q99467 24-661, looked up)
CD180 antigen: WDQMCIEKEANKTYNCENLGLSEIPDTLPNTTEFLEFSFNFLPTIHNRTFSRLMNLTFLDLTRCQINWIHEDTFQSHHQLSTLVLTGNPLIFMAETSLNGPKSLKHLFLIQTGISNLEFIPVHNLENLESLYLGSNHISSIKFPKDFPARNLKVLDFQNNAIHYISREDMRSLEQAINLSLNFNGNNVKGIELGAFDSTIFQSLNFGGTPNLSVIFNGLQNSTTQSLWLGTFEDIDDEDISSAMLKGLCEMSVESLNLQEHRFSDISSTTFQCFTQLQELDLTATHLKGLPSGMKGLNLLKKLVLSVNHFDQLCQISAANFPSLTHLYIRGNVKKLHLGVGCLEKLGNLQTLDLSHNDIEASDCCSLQLKNLSHLQTLNLSHNEPLGLQSQAFKECPQLELLDLAFTRLHINAPQSPFQNLHFLQVLNLTYCFLDTSNQHLLAGLPVLRHLNLKGNHFQDGTITKTNLLQTVGSLEVLILSSCGLLSIDQQAFHSLGKMSHVDLSHNSLTCDSIDSLSHLKGIYLNLAANSINIISPRLLPILSQQSTINLSHNPLDCTCSNIHFLTWYKENLHKLEGSEETTCANPPSLRGVKLSDVKLSCGITAIGIFFLIVFLLLLAILLFFAVKYLLRWKYQHI
Which “% PE+ in H1 UD” value [1] does the source give for B8 here?
Its value is 0.13%.

What about the “% PE+ in non-PGCs” value (D3.5 SOX17-GFP- non-PGCs) of the same molecule?
Its value is 1.582E-05%.

What about the “% PE+ in PGCs” value (D3.5 SOX17-GFP+ PGCs) of the same molecule?
Its value is 0%.

B9: CD200 (protein, UniProt P41217 31-278, looked up)
OX-2 membrane glycoprotein: QVQVVTQDEREQLYTPASLKCSLQNAQEALIVTWQKKKAVSPENMVTFSENHGVVIQPAYKDKINITQLGLQNSTITFWNITLEDEGCYMCLFNTFGFGKISGTACLTVYVQPIVSLHYKFSEDHLNITCSATARPAPMVFWKVPRSGIENSTVTLSHPNGTTSVTSILHIKDPKNQVGKEVICQVLHLGTVTDFKQTVNKGYWFSVPLLLSIVSLVILLVLISILLYWKRHRNQDRGELSQGVQKMT
What does the source list for B9?
% PE+ in H1 UD [1]: 99.9%; % PE+ in non-PGCs (D3.5 SOX17-GFP- non-PGCs): 0.7485%; % PE+ in PGCs (D3.5 SOX17-GFP+ PGCs): 0.9689%

B10: CD166 (protein, UniProt Q13740 28-583, looked up)
CD166 antigen: WYTVNSAYGDTIIIPCRLDVPQNLMFGKWKYEKPDGSPVFIAFRSSTKKSVQYDDVPEYKDRLNLSENYTLSISNARISDEKRFVCMLVTEDNVFEAPTIVKVFKQPSKPEIVSKALFLETEQLKKLGDCISEDSYPDGNITWYRNGKVLHPLEGAVVIIFKKEMDPVTQLYTMTSTLEYKTTKADIQMPFTCSVTYYGPSGQKTIHSEQAVFDIYYPTEQVTIQVLPPKNAIKEGDNITLKCLGNGNPPPEEFLFYLPGQPEGIRSSNTYTLTDVRRNATGDYKCSLIDKKSMIASTAITVHYLDLSLNPSGEVTRQIGDALPVSCTISASRNATVVWMKDNIRLRSSPSFSSLHYQDAGNYVCETALQEVEGLKKRESLTLIVEGKPQIKMTKKTDPSGLSKTIICHVEGFPKPAIQWTITGSGSVINQTEESPYINGRYYSKIIISPEENVTLTCTAENQLERTVNSLNVSAISIPEHDEADEISDENREKVNDQAKLIVGIVVGLLLAALVAGVVYWLYMKKSKTASKHVNKDLGNMEENKKLEENNHKTEA
What does the source list for B10?
% PE+ in H1 UD [1]: 99.8%; % PE+ in non-PGCs (D3.5 SOX17-GFP- non-PGCs): 0.7401%; % PE+ in PGCs (D3.5 SOX17-GFP+ PGCs): 0.8099%

B11: CD156c (protein, UniProt O14672 214-748, looked up)
Disintegrin and …: TTSAEKNTCQLYIQTDHLFFKYYGTREAVIAQISSHVKAIDTIYQTTDFSGIRNISFMVKRIRINTTADEKDPTNPFRFPNIGVEKFLELNSEQNHDDYCLAYVFTDRDFDDGVLGLAWVGAPSGSSGGICEKSKLYSDGKKKSLNTGIITVQNYGSHVPPKVSHITFAHEVGHNFGSPHDSGTECTPGESKNLGQKENGNYIMYARATSGDKLNNNKFSLCSIRNISQVLEKKRNNCFVESGQPICGNGMVEQGEECDCGYSDQCKDECCFDANQPEGRKCKLKPGKQCSPSQGPCCTAQCAFKSKSEKCRDDSDCAREGICNGFTALCPASDPKPNFTDCNRHTQVCINGQCAGSICEKYGLEECTCASSDGKDDKELCHVCCMKKMDPSTCASTGSVQWSRHFSGRTITLQPGSPCNDFRGYCDVFMRCRLVDADGPLARLKKAIFSPELYENIAEWIVAHWWAVLLMGIALIMLMAGFIKICSVHTPSSNPKLPPPKPLPGTLKRRRPPQPIQQPQRQRPRESYQMGHMRR
How did the “% PE+ in H1 UD” value [1] turn out when B11 was run?
Its value is 99.8%.

And the “% PE+ in non-PGCs” value (D3.5 SOX17-GFP- non-PGCs)?
Its value is 0.9234%.

And the “% PE+ in PGCs” value (D3.5 SOX17-GFP+ PGCs)?
The value was 0.9838%.
